Source: paper PMC4525147

What was measured:
Experiment in all cases: far-Western, overlay or dot blot; blots of lysates of E. coli expressing His-tagged gp41 constructs probed with biotinylated dicalcin, dcp11 or dcp15; only the binder purified
[1] = target: His-tagged ZP-C domain of gp41 (Xenopus laevis)
[2] = target: His-Δ63N, truncated ZP-C domain of gp41 (Xenopus laevis)
[3] = target: His-tagged full-length gp41 (Xenopus laevis)
[4] = target: His-Δ89C, truncated ZP-C domain of gp41 (Xenopus laevis)
[5] = target: His-Δ76C, truncated ZP-C domain of gp41 (Xenopus laevis)

binding [1] | binding [2] | binding [3] | binding [4] | binding [5] | Binder
binds | no binding | binds | no binding | binds | AALCKL (biotin) [dcp15, dicalcin-derived peptide]
binds | no binding | binds | no binding | binds | SFSCNQKNK (biotin) [dcp11, dicalcin-derived peptide]

These are yes or no findings as the source states them, for the method shown. For some of these results: Binding calls can cover weak binding; strength is not graded here.
